# The supplement of paper PMC8728848
# This is one part of the list.
# B1: CD23 (Homo sapiens) (protein)
# chain: MELQVSSGFVCNTCPEKWINFQRKCYYFGKGTKQWVHARYACDDMEGQLVSIHSPEEQDFLTKRASHTGSWIGLRNLDLKGEFIWVDGSHVDYSNWAPGEPTSRSQSEDCVMMRGSGRWNDAFCDRKLGAWVCDRLATCTPPASEGSAESMGPDSRPDPDGRLPTPSAPLHS
# What was measured:
# Experiment in all cases: glycan array binding signal (z-score within array); higher = stronger binding
# Conditions in all cases: glycan notation: IUPAC condensed, linker removed; mutation: H213R,G256S
# [1] = biological target: Fuc(a1-2)[GalNAc(a1-3)]Gal(b1-4)[Fuc(a1-3)]GlcNAc
# Procedure, shortened: (§1)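 The binding signal is a Z-score computed within each array. Data were drawn from 3228 arrays in the Consortium for Functional Glycomics database, restricted to those with a known protein sequence. Scores were averaged over arrays of the same protein sequence at different concentrations or buffers, and over linkers, and negative values can be taken as non-binding.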
# [2] = biological target: Fuc(a1-2)[GalNAc(a1-4)]Gal(b1-4)GlcNAc
# Procedure, shortened: as §1
# [3] = biological target: Fuc(a1-2)[GalNAc(b1-3)]Gal
# Procedure, shortened: as §1
# [4] = biological target: Fuc(a1-3)GlcNAc
# Procedure, shortened: as §1
# [5] = biological target: Fuc(a1-3)[Gal(b1-4)]Glc6S
# Procedure, shortened: as §1
# [6] = biological target: Fuc(a1-3)[Gal(b1-4)]GlcNAc
# Procedure, shortened: as §1
# [7] = biological target: Fuc(a1-3)[Gal(b1-4)]GlcNAc(b1-3)Gal(b1-3)[Fuc(a1-4)]GlcNAc
# Procedure, shortened: as §1
# [8] = biological target: Fuc(a1-3)[Gal(b1-4)]GlcNAc(b1-4)Gal(b1-4)[Fuc(a1-3)]GlcNAc
# Procedure, shortened: as §1
# [9] = biological target: Fuc(a1-3)[Gal(b1-4)]GlcNAc(b1-4)Gal(b1-4)[Fuc(a1-3)]GlcNAc(b1-4)Gal(b1-4)[Fuc(a1-3)]GlcNAc
# Procedure, shortened: as §1
# [10] = biological target: Fuc(a1-3)[Gal(b1-4)]GlcNAc6S
# Procedure, shortened: as §1
# [11] = biological target: Fuc(a1-3)[Gal3S(b1-4)]Glc6S
# Procedure, shortened: as §1
# [12] = biological target: Fuc(a1-3)[Gal3S(b1-4)]GlcNAc
# Procedure, shortened: as §1
# [13] = biological target: Fuc(a1-3)[Gal3S(b1-4)]GlcNAc6S
# Procedure, shortened: as §1
# [14] = biological target: Fuc(a1-3)[GalNAc(b1-4)]GlcNAc
# Procedure, shortened: as §1
# [15] = biological target: Fuc(a1-4)GlcNAc
# Procedure, shortened: as §1
# [16] = biological target: Fuc(b1-3)GlcNAc
# Procedure, shortened: as §1
# [17] = biological target: Gal(a1-2)Gal
# Procedure, shortened: as §1
# [18] = biological target: Gal(a1-3)Gal
# Procedure, shortened: as §1
# [19] = biological target: Gal(a1-3)Gal(b1-3)GlcNAc
# Procedure, shortened: as §1
# [20] = biological target: Gal(a1-3)Gal(b1-4)Glc
# Procedure, shortened: as §1
# [21] = biological target: Gal(a1-3)Gal(b1-4)GlcNAc
# Procedure, shortened: as §1
# [22] = biological target: Gal(a1-3)Gal(b1-4)[Fuc(a1-3)]GlcNAc
# Procedure, shortened: as §1
# [23] = biological target: Gal(a1-3)GalNAc
# Procedure, shortened: as §1
# [24] = biological target: Gal(a1-3)[Gal(a1-4)]Gal(b1-4)GlcNAc
# Procedure, shortened: as §1
# [25] = biological target: Gal(a1-4)Gal(b1-4)Glc
# Procedure, shortened: as §1
# [26] = biological target: Gal(a1-4)Gal(b1-4)GlcNAc
# Procedure, shortened: as §1
# [27] = biological target: Gal(a1-4)GlcNAc
# Procedure, shortened: as §1
# [28] = biological target: Gal(a1-6)Glc
# Procedure, shortened: as §1
# [29] = biological target: Gal(b1-2)Gal
# Procedure, shortened: as §1
# [30] = biological target: Gal(b1-3)Gal
# Procedure, shortened: as §1
# [31] = biological target: Gal(b1-3)GalNAc
# Procedure, shortened: as §1
# [32] = biological target: Gal(b1-3)GalNAc(b1-3)Gal(a1-4)Gal(b1-4)Glc
# Procedure, shortened: as §1
# [33] = biological target: Gal(b1-3)GalNAc(b1-4)Gal(b1-4)Glc
# Procedure, shortened: as §1
# [34] = biological target: Gal(b1-3)GalNAc(b1-4)[Neu5Ac(a2-3)]Gal(b1-4)Glc
# Procedure, shortened: as §1
# [35] = biological target: Gal(b1-3)GlcNAc
# Procedure, shortened: as §1
# [36] = biological target: Gal(b1-3)GlcNAc(b1-3)Gal(b1-3)GlcNAc
# Procedure, shortened: as §1
# [37] = biological target: Gal(b1-3)GlcNAc(b1-3)Gal(b1-4)Glc
# Procedure, shortened: as §1
# [38] = biological target: Gal(b1-3)GlcNAc(b1-3)Gal(b1-4)GlcNAc
# Procedure, shortened: as §1
# [39] = biological target: Gal(b1-3)[Fuc(a1-4)]GlcNAc
# Procedure, shortened: as §1
# [40] = biological target: Gal(b1-3)[Fuc(a1-4)]GlcNAc(b1-3)Gal(b1-3)[Fuc(a1-4)]GlcNAc
# Procedure, shortened: as §1
# [41] = biological target: Gal(b1-3)[Fuc(a1-4)]GlcNAc(b1-3)Gal(b1-4)GlcNAc
# Procedure, shortened: as §1
# [42] = biological target: Gal(b1-3)[Fuc(a1-4)]GlcNAc(b1-3)Gal(b1-4)[Fuc(a1-3)]GlcNAc
# Procedure, shortened: as §1
# [43] = biological target: Gal(b1-3)[GlcNAc(b1-6)]GalNAc
# Procedure, shortened: as §1
# [44] = biological target: Gal(b1-3)[Neu5Ac(a2-6)]GalNAc
# Procedure, shortened: as §1
# [45] = biological target: Gal(b1-3)[Neu5Ac(a2-6)]GlcNAc(b1-6)Gal(b1-4)Glc
# Procedure, shortened: as §1
binder,measurement,setting,value
B1,glycan array binding signal (z-score),[1],-0.361
same,glycan array binding signal (z-score),[2],0.347
same,glycan array binding signal (z-score),[3],0.044
same,glycan array binding signal (z-score),[4],-0.166
same,glycan array binding signal (z-score),[5],-0.224
same,glycan array binding signal (z-score),[6],-0.056
same,glycan array binding signal (z-score),[7],0.229
same,glycan array binding signal (z-score),[8],0.007
same,glycan array binding signal (z-score),[9],0.085
same,glycan array binding signal (z-score),[10],0.398
same,glycan array binding signal (z-score),[11],0.366
same,glycan array binding signal (z-score),[12],-0.325
same,glycan array binding signal (z-score),[13],0.422
same,glycan array binding signal (z-score),[14],-0.572
same,glycan array binding signal (z-score),[15],-0.237
same,glycan array binding signal (z-score),[16],-0.08
same,glycan array binding signal (z-score),[17],-0.069
same,glycan array binding signal (z-score),[18],0.091
same,glycan array binding signal (z-score),[19],-0.532
same,glycan array binding signal (z-score),[20],-0.051
same,glycan array binding signal (z-score),[21],0.01
same,glycan array binding signal (z-score),[22],-0.416
same,glycan array binding signal (z-score),[23],0.006
same,glycan array binding signal (z-score),[24],0.271
same,glycan array binding signal (z-score),[25],-0.15
same,glycan array binding signal (z-score),[26],-0.223
same,glycan array binding signal (z-score),[27],0.434
same,glycan array binding signal (z-score),[28],-0.039
same,glycan array binding signal (z-score),[29],-0.096
same,glycan array binding signal (z-score),[30],-0.106
same,glycan array binding signal (z-score),[31],-0.152
same,glycan array binding signal (z-score),[32],-0.145
same,glycan array binding signal (z-score),[33],0.064
same,glycan array binding signal (z-score),[34],-0.112
same,glycan array binding signal (z-score),[35],-0.167
same,glycan array binding signal (z-score),[36],-0.282
same,glycan array binding signal (z-score),[37],-0.418
same,glycan array binding signal (z-score),[38],-0.144
same,glycan array binding signal (z-score),[39],0
same,glycan array binding signal (z-score),[40],0.255
same,glycan array binding signal (z-score),[41],-0.528
same,glycan array binding signal (z-score),[42],-0.654
same,glycan array binding signal (z-score),[43],-0.353
same,glycan array binding signal (z-score),[44],-0.284
same,glycan array binding signal (z-score),[45],-0.248

# A different layout for part of the listing above.
binder	measurement	setting	value
B1	glycan array binding signal (z-score)	[5]	-0.224
same	glycan array binding signal (z-score)	[6]	-0.056
same	glycan array binding signal (z-score)	[7]	0.229
